Where a name gives a salt, the structure may show the parent alone. The list shows a part of the results. Most values come without repeats; read them as rough. Where a SMILES comes first, the peptide text is derived from it. Bridges are numbered along the chain shown (N, C = ends). [ ]: non-standard residue; d: D form. The star is where a group is joined. Ileψ(thiazoline)Cys = CC[C@H](C)[C@H](N)C1=N[C@H](C(=O)*)CS1; dOrn = NCCC[C@@H](N)C(=O)O

This test concerns p95-ErbB2-MCF7. Description: perinuclear lysosome accumulation (PNLA, size of LAMP2 puncta), robust Z-score vs plate median; higher = more perinuclear lysosome accumulation (reversal of invasive lysosome distribution). The following applies: 5 µM; 24 h.
Take `CC[C@H]1OC(=O)[C@H](C)[C@@H](O[C@H]2C[C@@](C)(OC)[C@@H](O)[C@H](C)O2)[C@H](C)[C@@H](O[C@@H]2O[C@H](C)C[C@H](N(C)C)[C@H]2O)[C@](C)(O)C[C@@H](C)[C@@H]2N[C@@H](COCCOC)O[C@H]([C@H]2C)[C@]1(C)O` [Dirithromycin]: the perinuclear lysosome accumulation was -0.323.
As for `O=C1CC2(CCCC2)CC(=O)N1CCCCN1CCN(c2ncccn2)CC1` [Buspirone hydrochloride], the perinuclear lysosome accumulation was -3.14.
As for `CCCNCC(O)COc1ccccc1C(=O)CCc1ccccc1` (stereo not drawn) [Propafenone hydrochloride], the perinuclear lysosome accumulation amounted to 0.302.
For `COc1cc([C@@H]2c3cc4c(cc3[C@@H](O[C@@H]3O[C@@H]5CO[C@@H](C)O[C@H]5[C@H](O)[C@H]3O)[C@H]3COC(=O)[C@H]23)OCO4)cc(OC)c1O` [Etoposide] the value was 0.0852; for `COc1ccccc1OCC(O)CN1CCN(CC(=O)Nc2c(C)cccc2C)CC1` (stereo not drawn) [Ranolazine], -1.3; for `C[C@H]1C[C@@H]2[C@H]([C@@H](O)C[C@@]3(C)[C@H]2CC[C@]3(O)C(=O)CO)[C@@]2(C)C=CC(=O)C=C12` [Methylprednisolone, 6-alpha], -2.73.
Under `CC(C)NCC(O)c1ccc2ccccc2c1` (stereo not drawn) [Pronethalol hydrochloride] stands -0.966.
For `Nc1nc2n[nH]nc2c(=O)[nH]1` [Azaguanine-8] the value was -0.297; for `CN(C)c1nc(N(C)C)nc(N(C)C)n1` [Altretamine], 0.208.
In the case of `O=C1OCCN1/N=C/c1ccc([N+](=O)[O-])o1` [Furazolidone], the perinuclear lysosome accumulation was -1.57.
For `O=S(=O)(O)c1cc(O)ccc1O` [Ethamsylate] the value was 0.863; for `CCC(=O)O[C@]1(C(=O)CCl)[C@@H](C)C[C@H]2[C@@H]3CCC4=CC(=O)C=C[C@]4(C)[C@@]3(F)[C@@H](O)C[C@@]21C` [Clobetasol propionate], -0.725.
For `c1ccc([C@H]2CN3CCSC3=N2)cc1` [Levamisole hydrochloride] the value was -1.95.
With `c1ccc2c3c([nH]c2c1)C1C2CCC(C4CCCNC42)N1CC3` (stereo not drawn) [Nitrarine dihydrochloride], the perinuclear lysosome accumulation was determined as 0.2.
Under `COc1ccc(C2CNC(=O)C2)cc1OC1CCCC1` (stereo not drawn) [Rolipram] stands 0.738.
Consider `O=c1oc2ccccc2c(O)c1Cc1c(O)c2ccccc2oc1=O` [Dicumarol], for which the perinuclear lysosome accumulation was -1.49.
As to `CN1CCN(CCCN2c3ccccc3Sc3ccc(Cl)cc32)CC1` [Prochlorperazine dimaleate], the perinuclear lysosome accumulation was found to be 3.13.
For `CN1CCN(c2c(F)cc3c(=O)c(C(=O)O)cn(CCF)c3c2F)CC1` [Fleroxacin], the perinuclear lysosome accumulation came to 0.957.
Under `C[C@H](CCC(=O)O)[C@H]1CC[C@H]2[C@@H]3[C@H](O)C[C@@H]4C[C@H](O)CC[C@]4(C)[C@H]3CC[C@]12C` [Chenodiol] stands 0.585; under `CC(=O)OCC(CCn1cnc2cnc(N)nc21)COC(C)=O` [Famciclovir], -2.27; under `NNc1nncc2ccccc12` [Hydralazine hydrochloride], 0.368.
`COc1c2occc2c(OC)c2c(=O)cc(C)oc12` [Khellin]: the perinuclear lysosome accumulation was -0.312.
Under `CC[C@H](C)C(=O)O[C@H]1CCC=C2C=C[C@H](C)[C@H](CC[C@@H]3C[C@@H](O)CC(=O)O3)[C@H]21` [Mevastatin] stands -0.78.
For `Nc1cc(C(Cl)=C(Cl)Cl)c(S(N)(=O)=O)cc1S(N)(=O)=O` [Clorsulon], the perinuclear lysosome accumulation is -0.269.
With `CN(C)[C@@H]1C(O)=C(C(=O)NCN2CCCC2)C(=O)[C@@]2(O)C(O)=C3C(=O)c4c(O)cccc4[C@@](C)(O)[C@H]3C[C@@H]12` [Rolitetracycline], the perinuclear lysosome accumulation was -1.04.
For `Cc1c(N(C)CS(=O)(=O)O)c(=O)n(-c2ccccc2)n1C` [Dipyrone] the value was 0.395; for `CC(NCCC(c1ccccc1)c1ccccc1)c1ccccc1` (stereo not drawn) [Fendiline hydrochloride], 2.21; for `CNCC(O)c1ccc(OC(=O)C(C)(C)C)c(OC(=O)C(C)(C)C)c1` (stereo not drawn) [Dipivefrin hydrochloride], -2.49.
Under `CC(C)NCC(O)c1ccc(O)c(O)c1` (single isomer, unassigned; (+)) [(+)-Isoproterenol (+)-bitartrate salt] stands -2.87; under `CCN(CC)CCc1nc(-c2ccccc2)no1` [Oxalamine citrate salt], -0.228.
Turning to `CC(C)NC[C@@H](O)COc1cccc2ccccc12` [(R)-Propranolol hydrochloride], the perinuclear lysosome accumulation came to 0.893.
`CN(C)CCOC(C)(c1ccccc1)c1ccccn1` (stereo not drawn) [Doxylamine succinate]: the perinuclear lysosome accumulation is 0.408.
Under `CC(=O)c1ccc2c(c1)N(CCCN(C)C)c1ccccc1S2` [Acetopromazine maleate salt] stands 0.879; under `CC(C)(C#N)c1cc(Cn2cncn2)cc(C(C)(C)C#N)c1` [Anastrozole], -1.59.
As for `Oc1c(I)cc(Cl)c2cccnc12` [Clioquinol], the perinuclear lysosome accumulation was -0.487.
`Nc1ccn([C@H]2CC[C@@H](CO)O2)c(=O)n1` [Zalcitabine]: the perinuclear lysosome accumulation was -0.663.
For `CN(C(=O)C(Cl)Cl)c1ccc(OC(=O)c2ccco2)cc1` [Diloxanide furoate] the value was -0.987; for `COc1ccc(OC)c(C(O)CNC(=O)CN)c1` (stereo not drawn) [Midodrine hydrochloride], -2.67; for `CN(C)CCN1C(=O)c2ccccc2N(C)c2ccccc21` [Dibenzepine hydrochloride], -0.709.
Under `CN1CCN(CCCN2c3ccccc3Sc3ccc(C(F)(F)F)cc32)CC1` [Trifluoperazine dihydrochloride] stands 2.2; under `CC[C@H](C)[C@H](N)C1=N[C@H](C(=O)N[C@@H](CC(C)C)C(=O)N[C@H](CCC(=O)O)C(=O)N[C@H](C(=O)N[C@H]2CCCCNC(=O)[C@H](CC(N)=O)NC(=O)[C@@H](CC(=O)O)NC(=O)[C@H](Cc3cnc[nH]3)NC(=O)[C@@H](Cc3ccccc3)NC(=O)[C@H]([C@@H](C)CC)NC(=O)[C@@H](CCCN)NC2=O)[C@@H](C)CC)CS1` [Bacitracin] ({Ileψ(thiazoline)Cys}-L[dE]IK[dOrn]I[dF]H[dD]N; lactam 4-C), -0.586.
For `CCOC(=O)O[C@]1(C(=O)COC(=O)CC)CC[C@H]2[C@@H]3CCC4=CC(=O)C=C[C@]4(C)[C@H]3[C@@H](O)C[C@@]21C` [Prednicarbate], the perinuclear lysosome accumulation is -1.36.
Regarding `C=C1c2c(Cl)ccc(O)c2C(=O)C2=C(O)[C@]3(O)C(=O)C(C(N)=O)=C(O)[C@@H](N(C)C)[C@@H]3[C@@H](O)[C@H]12.O=C(O)c1cc(S(=O)(=O)O)ccc1O` [Meclocycline sulfosalicylate], the perinuclear lysosome accumulation was determined as 0.774.
Under `CC(C)(C)NCC(O)COc1cccc2c1CCC(=O)N2` (stereo not drawn) [Carteolol hydrochloride] stands 1.21; under `COc1ccc2c(c1)c(CC(=O)O)c(C)n2C(=O)c1ccc(Cl)cc1` [Indomethacin], 0.098.
Regarding `Nc1nc2ccc(OC(F)(F)F)cc2s1` [Riluzole hydrochloride], the perinuclear lysosome accumulation is 0.509.
Under `C(=C\c1ccccc1)/CN1CCN(C(c2ccccc2)c2ccccc2)CC1` [Cinnarizine] stands -2.04; under `O=C(C1CCCCC1)N1CC(=O)N2CCc3ccccc3C2C1` (stereo not drawn) [Praziquantel], 0.242.
Under `C[C@H]1O[C@@H](O[C@H]2[C@@H](O)C[C@H](O[C@H]3[C@@H](O)C[C@H](O[C@H]4CC[C@@]5(C)[C@H](CC[C@@H]6[C@@H]5C[C@@H](O)[C@]5(C)[C@@H](C7=CC(=O)OC7)CC[C@]65O)C4)O[C@@H]3C)O[C@@H]2C)C[C@H](O)[C@@H]1O` [Digoxin] stands 0.519; under `COc1cc([S+](C)[O-])ccc1-c1nc2cccnc2[nH]1` (stereo not drawn) [Sulmazole], -1.36; under `CC(C(=O)O)c1ccc(-c2ccccc2)c(F)c1` (stereo not drawn) [Flurbiprofen], -1.04.
As for `O=C(OCC(O)CO)c1ccccc1Nc1ccnc2cc(Cl)ccc12` (stereo not drawn) [Glafenine hydrochloride], the perinuclear lysosome accumulation is 0.395.
For `Cc1cccc(C)c1NC(=O)C(C)N` (stereo not drawn) [Tocainide hydrochloride] the value was -1; for `CCCCc1cc2ccccc2c(OCCN(C)C)n1` [Dimethisoquin hydrochloride], -0.365.
Under `CC(C(=O)O)c1ccc2c(c1)[nH]c1ccc(Cl)cc12` (stereo not drawn) [Carprofen] stands -0.0869; under `Oc1c(Cl)cc(Cl)c(Cl)c1Cc1c(O)c(Cl)cc(Cl)c1Cl` [Hexachlorophene], 4.76.
Under `Cc1c(N(C)C)c(=O)n(-c2ccccc2)n1C` [Amidopyrine] stands -0.969; under `COc1ccc(/C=C/C(=O)Nc2ccccc2C(=O)O)cc1OC` [Tranilast], -1.43.
Regarding `Oc1ccc(/C=C/c2cc(O)cc(O)c2)cc1` [Resveratrol], the perinuclear lysosome accumulation is 0.828.
For `CCOC(=O)C1=C(COCCN)NC(C)=C(C(=O)OC)C1c1ccccc1Cl` (stereo not drawn) [Amlodipine], the perinuclear lysosome accumulation worked out at 0.343.
Under `CN1[C@@H]2CC[C@H]1C[C@@H](OC(=O)c1c[nH]c3ccccc13)C2` [Tropisetron HCl] stands -1.75; under `Cc1cccc(C)c1OCC(C)N` (stereo not drawn) [Mexiletine hydrochloride], 0.339.
Under `COc1ccccc1OCC(O)CO` (stereo not drawn) [Guaifenesin] stands -0.323; under `NC[C@@H]1O[C@H](O[C@H]2[C@@H](O)[C@H](O[C@@H]3[C@@H](O)[C@H](N)C[C@H](N)[C@H]3O[C@H]3O[C@H](CO)[C@@H](O)[C@H](O)[C@H]3N)O[C@@H]2CO)[C@H](N)[C@@H](O)[C@@H]1O` [Paromomycin sulfate], 0.00176.
Under `CC(=O)[C@H]1CC[C@H]2[C@@H]3C=CC4=CC(=O)CC[C@@]4(C)[C@@H]3CC[C@]12C` [Dydrogesterone] stands -0.0332.
For the compound `Nc1ccccc1S(N)(=O)=O` [2-Aminobenzenesulfonamide], the perinuclear lysosome accumulation came to 0.0694.
Consider `COc1ccccc1Oc1c(NS(=O)(=O)c2ccc(C(C)(C)C)cc2)nc(-c2ncccn2)nc1OCCO` [Bosentan], for which the perinuclear lysosome accumulation is -2.05.
Under `CC(C)[N+](C)(CCOC(=O)C1c2ccccc2Oc2ccccc21)C(C)C` [Propantheline bromide] stands 1.64.
